Some results were stated once for a whole list of compounds, not compound by compound.
Biological target: T1, histamine H3 receptor (Homo sapiens, UniProt Q9Y5N1)
T1 construct: expressed in transfected cells; host or cells: CHO K1 cells carrying pSwitch, transfected with pGeneH3 and induced with mifepristone; clone 3H3; membrane preparation
Assay: Histamine H3 functional antagonist assay (method B), [35S]-GTPγS SPA on membranes
Type: biochemical
Excerpt: A membrane preparation containing histamine H3 receptors may be prepared in accordance with the following procedures:
(i) Generation of Histamine H3 Cell Line
DNA encoding the human histamine H3 gene (Huvar, A. et al. (1999) Mol. Pharmacol. 55(6), 1101-1107) was cloned into a holding vector, pCDNA3.1 TOPO (InVitrogen) and its cDNA was isolated from this vector by restriction digestion of plasmid DNA with the enzymes BamH1 and Not-1 and ligated into the inducible expression vector pGene (InVitrogen) digested with the same enzymes. The GeneSwitch™ system (a system where in transgene expression is switched off in the absence of an inducer and switched on in the presence of an inducer) was performed as described in U.S. Pat. Nos. 5,364,791; 5,874,534; and 5,935,934. Ligated DNA was transformed into competent DH5α E. coli host bacterial cells and plated onto Luria Broth (LB) agar containing Zeocin™ (an antibiotic which allows the selection of cells expressing the sh ble gene which is present on pGene and pSwitch) at 50 μg ml^−1. Colonies containing the re-ligated plasmid were identified by restriction analysis. DNA for transfection into mammalian cells was prepared from 250 ml cultures of the host bacterium containing the pGeneH3 plasmid and isolated using a DNA preparation kit (Qiagen Midi-Prep) as per manufacturers guidelines (Qiagen). […]
10-14 days post selection 10 nM Mifepristone (InVitrogen), was added to the culture medium to induce the expression of the receptor. […] Receptor bound antibody was detected by incubation of the cells for 60 minutes on ice with a goat anti rabbit antibody, conjugated with Alexa 488 fluorescence marker (Molecular Probes). Following two further washes with Sorting Medium, cells were filtered through a 50 μm Filcon™ (BD Biosciences) and then analysed on a FACS Vantage SE Flow Cytometer fitted with an Automatic Cell Deposition Unit. […]

Sequences of proteins named here, by UniProt entry; tags and fusion partners are left off. A change or cut given only in a name is not applied to a line headed by its entry.
UniProt Q9Y5N1: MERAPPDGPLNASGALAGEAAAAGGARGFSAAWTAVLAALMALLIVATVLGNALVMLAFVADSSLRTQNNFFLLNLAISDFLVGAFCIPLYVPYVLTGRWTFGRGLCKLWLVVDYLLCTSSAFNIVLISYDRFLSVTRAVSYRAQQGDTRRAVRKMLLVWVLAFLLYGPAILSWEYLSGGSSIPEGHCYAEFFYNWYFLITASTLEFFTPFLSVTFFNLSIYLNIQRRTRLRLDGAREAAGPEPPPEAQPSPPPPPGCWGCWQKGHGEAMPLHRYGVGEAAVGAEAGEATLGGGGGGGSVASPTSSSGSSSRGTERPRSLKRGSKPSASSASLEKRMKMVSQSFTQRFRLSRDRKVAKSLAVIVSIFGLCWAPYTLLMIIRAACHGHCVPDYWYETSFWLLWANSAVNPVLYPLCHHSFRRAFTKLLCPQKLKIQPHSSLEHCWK

Antagonism in the histamine H3 functional antagonist assay (in words), exhibited antagonism:
O=C1CCCN1c1ccc(Oc2ccc3c(c2)CCN(C2CCCC2)CC3)nc1 [Compound 1, 1-{6-[(3-Cyclopentyl-2,3,4,5-tetrahydro-1H-3-benzazepin-7-yl)oxy]-3-pyridinyl}-2-pyrrolidinone]
CN1CCN(c2ccc(Oc3ccc4c(c3)CCN(C3CCC3)CC4)c(F)c2)C1=O [Compound 3, 1-{4-[(3-Cyclobutyl-2,3,4,5-tetrahydro-1H-3-benzazepin-7-yl)oxy]-3-fluorophenyl}-3-methyl-2-imidazolidinone]
O=C1CCCN1c1cnc(Oc2ccc3c(c2)CCN(C2CCCC2)CC3)cn1 [Compound 2, 1-{5-[(3-Cyclopentyl-2,3,4,5-tetrahydro-1H-3-benzazepin-7-yl)oxy]-2-pyrazinyl}-2-pyrrolidinone]
